Assay results published in paper PMC9426557.
Results are given in words; binding and its absence hold for the method and conditions named. Binding seen in cells or lysates may run through a third protein. Some binding calls cover weakened binding; strength is not graded here. Tags and fused reporters may be left off the sequences shown.

Target: T1, HDA-2 (histone deacetylase 2, endogenous) (Neurospora crassa (endogenous in N. crassa mycelium)) (UniProt Q7SEL7)
T1 sequence: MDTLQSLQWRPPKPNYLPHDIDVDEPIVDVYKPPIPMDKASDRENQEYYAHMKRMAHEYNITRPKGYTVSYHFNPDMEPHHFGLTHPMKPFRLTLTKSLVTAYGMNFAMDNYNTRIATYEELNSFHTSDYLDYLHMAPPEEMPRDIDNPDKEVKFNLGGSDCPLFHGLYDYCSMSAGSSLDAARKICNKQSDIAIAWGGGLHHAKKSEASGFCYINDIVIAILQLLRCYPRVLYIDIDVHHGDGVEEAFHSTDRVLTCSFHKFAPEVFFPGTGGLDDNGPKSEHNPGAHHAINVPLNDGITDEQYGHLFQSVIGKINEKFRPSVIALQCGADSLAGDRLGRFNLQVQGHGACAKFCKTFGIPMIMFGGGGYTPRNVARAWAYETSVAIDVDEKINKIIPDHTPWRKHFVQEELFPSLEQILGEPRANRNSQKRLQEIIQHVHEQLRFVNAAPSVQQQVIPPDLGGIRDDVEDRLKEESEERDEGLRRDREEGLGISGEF
Assay: co-IP; N. crassa WT-strain cell extracts with ectopic Myc-tagged protein, precipitated with anti-HDA-2 or anti-SIF-2 antibody, protein G-Sepharose; eluates blotted with anti-Myc and anti-HDA-2 or anti-SIF-2

B1: Myc-CPR-1 (protein, UniProt Q7S7Z6 28-285)
chain: AKGPKITHKVYFDIEQGDKPLGRIVMGLYGKTVPKTAENFRALATGEKGFGYEGSTFHRVIKQFMIQGGDFTKGDGTGGKSIYGDKFPDENFKLKHSKKGLLSMANAGKDTNGSQFFITTVITSWLDGKHVVFGEVLEGYDVVEKIENTKTGPRDAPAEPIKIAKSGELEVPPEGLEGQSEWASPAYANEDEKPAAPVPVTDAKPPAHDSIPAATADDDDTGAPLFAKVLFFGVLVLGLVLYIRLRRAPKGTYGKGME
binding: binds

B2: Myc-SET-4 (protein, UniProt Q7RZ84 1-948)
chain: MTDKLPSLLTPIAPPSRTSFSVSAAVPVQDGIRAQENVEEEPYTIRCICKYPDDDGNTIYCELCDTWQHIECYYPNNSEDALRDPDFAHFCVECQPRPLDRERAKENQRRKLTTGVTEGMADKKSKRPISKSHKKKPKPSDLPLTGQHSKAEKQASIQDSHPPTKKSKSSHKSSHSVSSQAAKRSPQFGSTKSNHAHPPSPAATPPDLPADFEIHTYAPALLSGSSDRGVEIVHTNSFASLQVSNAISAWLRDHNKLQKETGWAYADIFQPLPPNIDQLKRPVDIELSRKTLGQGTVASWKCLKAPSAIAHNVPLVELNGQIGIQSSYCADPDSRWQELTSPLPYVFFHPMLPIYIDTRKEGSQARYIRRSCKPNAMLETYLSDGYELHFWLVTDRQVAAREEITLPWDFRFPNENKSRMLRVLGLSDEDTSAHAESSVDDGEYQALTSWLHNILSEYGGCACNLGSECAFARFHRNHLGKSQAPANPPKTKKRKSKTQSSSTIGTGPATDSRAASEGHLEDAPENDRRSVSGSARSKPPSRDLTPTARQGSFDTLGILTEPTDRDKRKVSMIEETFRRIELQQQPTKKRKARGSDAATTSKKGSKSSATTQTTNATNGPDERHCHFANGETAITSKATSPAASAKSGRVTKSKKTSSRKGSVAVVSHPVPAQPVRLPSRPKYADAGTQTNPDTEANPAPSPARPKRRLVSVTMRIMQHHRWLKEQQGKQRLLNQAVATVPMDVDSPKDNKAVVSVAGSVQDTTLKPSAPSKVTTSDVEMPDAPTVSASHLKAAQSTSVVTAPKSKVLDLRVPMPPVPPFPSSTSLALTSTTSLPAGTSAAQSSFSVTGLPSPLGPSSINGLTANPSPIKKKLSLSDYTKSRMNKAAAARPSVSVPSLKPNAALDEPKLTTSDDNGGAASGSPTTEKVTDTTGSTTAALALTTASSSV
binding: binds
